# Test results as given in the supplement of paper PMC8728848.
# Some of the results follow.
# B1: HFR-3 (Triticum aestivum) (protein)
# chain: MKGLLLCALALAFAAVTTHAQLQSCPTRCGKQADGMECPNNLCCSKDGYCGLGVDYCSAGAGCQSGACYDNKICGAQANGTLCRNNHCCSSGGRCGYGREYCSNGCQGGPCWADLKCGHLDNGKLCPNNLCCSQYGYCGLGPEFCGTGCQNGACSTDKPCGNKANGAPCTNNYCCSQYGSCGLGKDYCGTGCQNGACN
# How the values were obtained:
# Experiment in all cases: glycan array binding signal (z-score within array); higher = stronger binding
# Conditions in all cases: glycan notation: IUPAC condensed, linker removed
# [1] = biological target: Neu5Ac(a2-6)Gal(b1-4)GlcNAc(b1-2)Man(a1-3)[Neu5Ac(a2-3)Gal(b1-4)GlcNAc(b1-2)Man(a1-6)]Man(b1-4)GlcNAc(b1-4)GlcNAc
# Summary of the method: (§1)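 Glycan array binding is given as a within-array Z-score, which can be read as non-binding when negative. The arrays, 3228 of them, came from the Consortium for Functional Glycomics database and were retained only where the protein sequence was available. Z-scores were averaged across arrays of the same protein sequence at different concentrations or buffers and across linkers.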
# [2] = biological target: Neu5Ac(a2-6)Gal(b1-4)GlcNAc(b1-2)Man(a1-3)[Neu5Ac(a2-6)Gal(b1-4)GlcNAc(b1-2)Man(a1-6)]Man(b1-4)GlcNAc(b1-4)GlcNAc
# Summary of the method: as §1
# [3] = biological target: Neu5Ac(a2-6)Gal(b1-4)GlcNAc(b1-2)Man(a1-3)[Neu5Ac(a2-6)Gal(b1-4)GlcNAc(b1-2)Man(a1-6)]Man(b1-4)GlcNAc(b1-4)[Fuc(a1-6)]GlcNAc
# Summary of the method: as §1
# [4] = biological target: Neu5Ac(a2-6)Gal(b1-4)GlcNAc(b1-2)Man(a1-6)Man(b1-4)GlcNAc(b1-4)GlcNAc
# Summary of the method: as §1
# [5] = biological target: Neu5Ac(a2-6)Gal(b1-4)GlcNAc(b1-2)Man(a1-6)[Gal(b1-4)GlcNAc(b1-2)Man(a1-3)]Man(b1-4)GlcNAc(b1-4)GlcNAc
# Summary of the method: as §1
# [6] = biological target: Neu5Ac(a2-6)Gal(b1-4)GlcNAc(b1-2)Man(a1-6)[GlcNAc(b1-2)Man(a1-3)]Man(b1-4)GlcNAc(b1-4)GlcNAc
# Summary of the method: as §1
# [7] = biological target: Neu5Ac(a2-6)Gal(b1-4)GlcNAc(b1-2)Man(a1-6)[Man(a1-3)]Man(b1-4)GlcNAc(b1-4)GlcNAc
# Summary of the method: as §1
# [8] = biological target: Neu5Ac(a2-6)Gal(b1-4)GlcNAc(b1-2)[Neu5Ac(a2-6)Gal(b1-4)GlcNAc(b1-4)]Man(a1-3)[GlcNAc(b1-4)][Neu5Ac(a2-6)Gal(b1-4)GlcNAc(b1-2)[Neu5Ac(a2-6)Gal(b1-4)GlcNAc(b1-6)]Man(a1-6)]Man(b1-4)GlcNAc(b1-4)GlcNAc
# Summary of the method: as §1
# [9] = biological target: Neu5Ac(a2-6)Gal(b1-4)GlcNAc(b1-2)[Neu5Ac(a2-6)Gal(b1-4)GlcNAc(b1-4)]Man(a1-3)[GlcNAc(b1-4)][Neu5Ac(a2-6)Gal(b1-4)GlcNAc(b1-4)Man(a1-6)]Man(b1-4)GlcNAc(b1-4)GlcNAc
# Summary of the method: as §1
# [10] = biological target: Neu5Ac(a2-6)Gal(b1-4)GlcNAc(b1-2)[Neu5Ac(a2-6)Gal(b1-4)GlcNAc(b1-6)]Man(a1-6)[Neu5Ac(a2-6)Gal(b1-4)GlcNAc(b1-2)Man(a1-3)][GlcNAc(b1-4)]Man(b1-4)GlcNAc(b1-4)GlcNAc
# Summary of the method: as §1
# [11] = biological target: Neu5Ac(a2-6)Gal(b1-4)GlcNAc(b1-3)Gal(b1-3)GlcNAc
# Summary of the method: as §1
# [12] = biological target: Neu5Ac(a2-6)Gal(b1-4)GlcNAc(b1-3)Gal(b1-4)GlcNAc
# Summary of the method: as §1
# [13] = biological target: Neu5Ac(a2-6)Gal(b1-4)GlcNAc(b1-3)Gal(b1-4)GlcNAc(b1-2)Man(a1-3)[Neu5Ac(a2-6)Gal(b1-4)GlcNAc(b1-3)Gal(b1-4)GlcNAc(b1-2)Man(a1-6)]GalNAc
# Summary of the method: as §1
# [14] = biological target: Neu5Ac(a2-6)Gal(b1-4)GlcNAc(b1-3)Gal(b1-4)GlcNAc(b1-3)Gal(b1-4)GlcNAc
# Summary of the method: as §1
# [15] = biological target: Neu5Ac(a2-6)Gal(b1-4)GlcNAc(b1-3)Gal(b1-4)GlcNAc(b1-3)Gal(b1-4)GlcNAc(b1-2)Man(a1-3)[Neu5Ac(a2-6)Gal(b1-4)GlcNAc(b1-3)Gal(b1-4)GlcNAc(b1-3)Gal(b1-4)GlcNAc(b1-2)Man(a1-6)]GalNAc
# Summary of the method: as §1
# [16] = biological target: Neu5Ac(a2-6)Gal(b1-4)GlcNAc(b1-3)Gal(b1-4)GlcNAc(b1-3)GalNAc
# Summary of the method: as §1
# [17] = biological target: Neu5Ac(a2-6)Gal(b1-4)GlcNAc(b1-3)Gal(b1-4)GlcNAc(b1-3)[Neu5Ac(a2-6)Gal(b1-4)GlcNAc(b1-3)Gal(b1-4)GlcNAc(b1-6)]GalNAc
# Summary of the method: as §1
# [18] = biological target: Neu5Ac(a2-6)Gal(b1-4)GlcNAc(b1-3)Gal(b1-4)GlcNAc(b1-6)[Gal(b1-3)]GalNAc
# Summary of the method: as §1
# [19] = biological target: Neu5Ac(a2-6)Gal(b1-4)GlcNAc(b1-3)Gal(b1-4)[Fuc(a1-3)]GlcNAc(b1-3)Gal(b1-4)[Fuc(a1-3)]GlcNAc
# Summary of the method: as §1
# [20] = biological target: Neu5Ac(a2-6)Gal(b1-4)GlcNAc(b1-3)GalNAc
# Summary of the method: as §1
# [21] = biological target: Neu5Ac(a2-6)Gal(b1-4)GlcNAc(b1-3)[Neu5Ac(a2-6)Gal(b1-4)GlcNAc(b1-6)]GalNAc
# Summary of the method: as §1
# [22] = biological target: Neu5Ac(a2-6)Gal(b1-4)GlcNAc(b1-6)GalNAc
# Summary of the method: as §1
# [23] = biological target: Neu5Ac(a2-6)Gal(b1-4)GlcNAc(b1-6)[Gal(b1-3)GlcNAc(b1-3)]Gal(b1-4)Glc
# Summary of the method: as §1
# [24] = biological target: Neu5Ac(a2-6)Gal(b1-4)GlcNAc(b1-6)[Gal(b1-3)]GalNAc
# Summary of the method: as §1
# [25] = biological target: Neu5Ac(a2-6)Gal(b1-4)GlcNAc6S
# Summary of the method: as §1
# Neu5Ac(a2-6)GalNAc = biological target: Neu5Ac(a2-6)GalNAc
# Summary of the method: as §1
# [26] = biological target: Neu5Ac(a2-6)GalNAc(b1-4)GlcNAc
# Summary of the method: as §1
# [27] = biological target: Neu5Ac(a2-6)GalNAc(b1-4)GlcNAc6S
# Summary of the method: as §1
# [28] = biological target: Neu5Ac(a2-6)GlcNAc(b1-4)GlcNAc
# Summary of the method: as §1
# [29] = biological target: Neu5Ac(a2-6)GlcNAc(b1-4)GlcNAc(b1-4)GlcNAc
# Summary of the method: as §1
binder,measurement,setting,value
B1,glycan array binding signal (z-score),[1],-0.75
same,glycan array binding signal (z-score),[2],0.351
same,glycan array binding signal (z-score),[3],-0.243
same,glycan array binding signal (z-score),[4],0.213
same,glycan array binding signal (z-score),[5],-0.801
same,glycan array binding signal (z-score),[6],-0.077
same,glycan array binding signal (z-score),[7],0.534
same,glycan array binding signal (z-score),[8],-0.147
same,glycan array binding signal (z-score),[9],-1.06
same,glycan array binding signal (z-score),[10],-0.452
same,glycan array binding signal (z-score),[11],-0.693
same,glycan array binding signal (z-score),[12],0.169
same,glycan array binding signal (z-score),[13],0.189
same,glycan array binding signal (z-score),[14],0.064
same,glycan array binding signal (z-score),[15],0.794
same,glycan array binding signal (z-score),[16],-0.559
same,glycan array binding signal (z-score),[17],0.943
same,glycan array binding signal (z-score),[18],0.517
same,glycan array binding signal (z-score),[19],-0.623
same,glycan array binding signal (z-score),[20],-1.71
same,glycan array binding signal (z-score),[21],-1.33
same,glycan array binding signal (z-score),[22],1.13
same,glycan array binding signal (z-score),[23],-0.251
same,glycan array binding signal (z-score),[24],0.02
same,glycan array binding signal (z-score),[25],-0.691
same,glycan array binding signal (z-score),Neu5Ac(a2-6)GalNAc,-0.572
same,glycan array binding signal (z-score),[26],-0.965
same,glycan array binding signal (z-score),[27],-0.863
same,glycan array binding signal (z-score),[28],-1.25
same,glycan array binding signal (z-score),[29],-0.465

# Looked up one by one from the entries so far:
binder,measurement,setting,value
B1,glycan array binding signal (z-score),[5],-0.801
same,glycan array binding signal (z-score),[24],0.02
